Results on 2 molecules are retold here after patent EP4480961A1.

No constants are given. Whether binding was seen depends on the method and setting.

One experiment deals with transferrin. Description: cross-reactivity test, yeast display flow cytometry. A general note: Flow cytometry measures light scatter and fluorescence of single cells or particles in a stream.
The target of a further experiment is lysozyme. The experiment is described as above.

B1: P7 engineered rcSso7d binder (designed binder)
chain: ATVKFTYQGEEKQVDISKIKFVFRMGQAIEFAYDEGGGALGVGVVSEKDAPKELLQMLEKQ
As for B1, the binding entry with transferrin and with lysozyme was “no binding (tested: 1 µM)” each time.

B2: P9 engineered rcSso7d binder (designed binder)
chain: ATVKFTYQGEEKQVDISKIKNVHRHGQYISFWYDEGGGAYGHGKVSEKDAPKELLQMLEKQ
As for B2, the binding result with transferrin and with lysozyme was “no binding (tested: 1 µM)” each time.
